From paper PMC4111866, “Enhancement in corneal permeability of riboflavin using calcium sequestering compounds” (International Journal of Pharmaceutics, 2014)

Assay: Isothermal titration calorimetry of chelators titrated with CaCl2
Assay type: binding
Conditions: 0.4 mM chelator in 10 mM MES, pH 7.4 ± 0.2, 25 °C; CaCl2 6 mM (EDTA, EGTA) or 25 mM (EDDS)

Row | SMILES | Stoichiometry, N | ΔH [kcal/mol] | ΔS [kJ mol^−1 deg^−1]
1 | O=C(O)CC(NCCNC(CC(=O)O)C(=O)O)C(=O)O (stereo not drawn) [EDDS, ethylenediamine-N,N′-disuccinic acid] | 1.55 ± 0.04 | 0.963 ± 0.0908 | 80.21 ± 0.63
2 | O=C(O)CN(CCN(CC(=O)O)CC(=O)O)CC(=O)O [EDTA, Ethylenediaminetetraacetic acid] | 1.12 ± 0.06 | -2.761 ± 0.0598 | 77.70 ± 1.88
3 | O=C(O)CN(CCOCCOCCN(CC(=O)O)CC(=O)O)CC(=O)O [EGTA, ethylene glycol-bis(2-aminoethylether)-N,N,N′,N′-tetraacetic acid] | 1.34 ± 0.29 | -3.131 ± 0.1 | 54.68 ± 2.80
